From PubChem BioAssay AID2685 (National Center for Advancing Translational Sciences (NCATS), 2010)
The list shows a part of the results. Shown are side measurements of this screen, not its main read-out; they come without a call. Compounds called inactive in the main read-out are mostly missing here. Potencies come from curve fits of mixed quality, noted in brackets.

Assay: qHTS Assay for Lipid Storage Modulators in Drosophila S3 Cells;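 as to cell number change: cells counted by Cell Tracker Red CMTPX staining in the red channel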
Details: BODIPY lipid droplet fluorescence, 18-24 h; for cell number change: measured here: cell count max response, cells fed with added oleic acid
Outline: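 Drosophila S3 cells loaded with oleic acid (400 uM, as added) and compounds at several concentrations; lipid droplets imaged by 488-nm laser-scanning cytometry, 500–530 nm intensity and object ratio to cell channel. Percent activity normalized to 20 uM Triacsin C.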

[1] = measured here: lipid fluorescence (Fed channel) AC50, cells fed with added oleic acid
[2] = measured here: cell number channel AC50, cells fed with added oleic acid

| SMILES | cell number change [%] | AC50 [1] | AC50 [2] |
| --- | --- | --- | --- |
| CCN1CCc2nc(NC(=O)Cc3ccc4c(c3)OCCO4)sc2C1 | -3 | 0.146 µM [rising, full curve, poor fit] | – |
| COc1cc(-c2cc(C(=O)Nc3cc(S(=O)(=O)N4CCOCC4)ccc3C)c3ccccc3n2)cc(OC)c1OC | -3.5 | – | – |
| Cc1cc(C(=O)COC(=O)C2CCN(C(=O)c3ccc(Cl)cc3)CC2)c(C)n1CC1CCCO1 (configuration not stated) | 1.23 | 29.1 µM [rising, single point] | 3.66 µM [falling, single point] |
| O=C(Cn1cnc2c(cnn2-c2ccc(F)cc2)c1=O)N1CCN(c2ccccc2F)CC1 | -0.323 | – | – |
| Nc1ccc(S(=O)C(F)(F)F)cc1 (configuration not stated) | – | 2.91 µM [rising, single point] | – |
| CCCCNC(=O)/C(C#N)=C/c1ccc(-c2ccc(S(=O)(=O)N3CCOCC3)cc2)o1 | 10.4 | 20.6 µM [falling, single point] | 7.31 µM [rising, single point] |
| CC(=O)NCCNC(=O)c1ccc(NC2=NC3CS(=O)(=O)CC3S2)cc1 (configuration not stated) | -22.9 | 0.366 µM [falling, full curve, poor fit] | – |
| C=CCN=c1scc(-c2ccccc2)n1/N=C/c1ccccn1 | -36.1 | – | 29.1 µM [falling, single point] |
| O=C(CN(c1cccc([N+](=O)[O-])c1)S(=O)(=O)c1ccccc1)N1CCCCC1 | -23.8 | 6.51 µM [rising, single point] | – |
| Cc1ccc(OCC(=O)N/N=C\c2ccc(-c3cccc(C(=O)O)c3)o2)c(C)c1 | -0.905 | 29.1 µM [rising, single point] | – |
| O=C1CN(c2ccccc2F)C(=O)CN1c1ccccc1F | -6.95 | – | – |
| CCN(CCCNC(=O)Cn1ncc2c(=O)oc3ccccc3c21)c1cccc(C)c1 | -33.8 | – | 23.1 µM [falling, partial curve, poor fit] |
| Cn1c(CN2CCOCC2)nnc1SCC(N)=O | -20.3 | – | – |
| O=C1NC(c2cn(-c3ccccc3)nc2-c2cccs2)C(C(=O)c2cccnc2)C(O)(C(F)(F)F)N1 (configuration not stated) | 65 | 0.146 µM [rising, full curve, poor fit] | 2.91 µM [rising, partial curve, poor fit] |
| CCCOc1ccccc1NS(=O)(=O)c1ccc2[nH]c(=O)[nH]c2c1 | 16.7 | 1.16 µM [falling, single point] | – |
| Cc1c(C(=O)N/N=C/c2ccoc2)cccc1[N+](=O)[O-] | -34.7 | 0.58 µM [rising, single point] | 0.184 µM [falling, full curve, poor fit] |
| O=C(CCCCCNC(=O)N1CCn2c1nc1ccccc12)NCc1ccc(Cl)cc1 | 3.23 | – | 0.00411 µM [rising, full curve, poor fit] |
| CCCCSc1nc(SCC(=O)NCc2ccco2)c2c3c(sc2n1)COC(C)(CC)C3 (configuration not stated) | -21.2 | 1.46 µM [falling, partial curve] | – |
| Cn1c(-[n+]2c(-c3ccccc3)cc(-c3ccccc3)cc2-c2ccccc2)nc2c([N+](=O)[O-])cccc21 | 18.3 | – | – |

| SMILES | cell number change [%] | AC50 [1] | AC50 [2] |
| --- | --- | --- | --- |
| O=C1C=C(NCc2ccco2)CCC1 | -18.6 | 14.6 µM [falling, single point] | 0.517 µM [falling, full curve, poor fit] |
| COc1ccccc1-n1nnnc1SCC(=O)NC1CC1 | – | – | 6.51 µM [rising, single point] |
| O=C(O)c1cc(Br)ccn1 | 6.51 | 4.61 µM [falling, single point] | 4.11 µM [falling, single point] |
| CCCC(C)C(=O)N(Cc1ccccc1)c1ccccn1 (configuration not stated) | 17.7 | 6.51 µM [falling, single point] | – |
| CCN(CC(=O)NC1CCS(=O)(=O)C1)S(=O)(=O)c1ccc(Cl)cc1C(F)(F)F (configuration not stated) | 116 | 6.51 µM [falling, partial curve, poor fit] | – |
| CCn1c(=NC(=O)CS(=O)(=O)c2ccccc2)sc2cccc(OC)c21 | -24.3 | 6.51 µM [falling, single point] | – |
| CC(=O)NC(c1ccccc1)c1nc2ccccc2[nH]1 (configuration not stated) | -19 | 29.1 µM [falling, single point] | – |
| C=CCOC(=O)C(C#N)c1nc2ccccc2nc1N1CCCC1 (configuration not stated) | 7.5 | – | – |
| CC(C)C(NC(=O)c1ccc2c(c1)OCO2)C(=O)N/N=C\c1ccco1 (configuration not stated) | -13.1 | – | 0.0259 µM [falling, full curve, poor fit] |
| N/C(=N\O)c1ccc([N+](=O)[O-])s1 | -21.8 | 2.59 µM [falling, partial curve, poor fit] | 6.51 µM [falling, single point] |
| CC(C)(C)c1ccc(OC(=O)CN2C(=O)C3C4CCC(C4)C3C2=O)cc1 (configuration not stated) | -1.54 | 4.61 µM [falling, partial curve] | – |
| CCCCC(O)(CCCC)C(=O)NN(C(=O)CCl)c1ccccc1 | -15.3 | 23.1 µM [falling, single point] | – |
| COC(=O)c1ccccc1NC(=O)C1(S(=O)(=O)c2ccc(Cl)cc2)CC1 | -26.7 | – | 0.164 µM [falling, full curve, poor fit] |
| CCS(=O)(=O)N1CCN(Cc2c[nH]c3ccccc23)CC1 | 10.9 | 29.1 µM [rising, single point] | – |
| NC(=O)CSc1nc2scc(-c3ccc(Cl)cc3)c2c(=O)n1Cc1ccccc1 | -7.46 | 29.1 µM [falling, single point] | – |
| CCN(CC)S(=O)(=O)c1ccc(NC(=S)NC(=O)CC(C)C)cc1 | 0.47 | – | – |
| CCn1c(CCNC(=O)c2ccc(Cl)c(Cl)c2)nnc1SCCOc1ccc(OC)cc1 | -28.3 | 23.1 µM [falling, partial curve] | – |
| Cc1cc(O)c(-c2cc(C(=O)Nc3ccc(S(=O)(=O)N4CCOCC4)cc3)[nH]n2)cc1C | – | 2.06 µM [falling, partial curve] | 2.31 µM [falling, single point] |

2 of the compounds above, with bars between the fields.
SMILES | cell number change [%] | AC50 [1] | AC50 [2]
CCN1CCc2nc(NC(=O)Cc3ccc4c(c3)OCCO4)sc2C1 | -3 | 0.146 µM [rising, full curve, poor fit] | –
COc1cc(-c2cc(C(=O)Nc3cc(S(=O)(=O)N4CCOCC4)ccc3C)c3ccccc3n2)cc(OC)c1OC | -3.5 | – | –
